From PubChem BioAssay AID540276 (National Center for Advancing Translational Sciences (NCATS), 2011)
Values joined by “and” are separate entries in the source; they are usually repeats but may differ in a detail not shown here. Equal entries are not always repeated. Screen size: about 300,000 compounds; about 5,400 (1.8%) were called active. Inconclusive results, whose numbers are uncertain, are shown with a selection of clear calls. Calls follow the shape of the full dose curve; tested in HEK293 cells. Where the call is inconclusive, the potency comes from a doubtful curve fit.

Test: qHTS for inhibitors of binding or entry into cells for Marburg Virus
Conditions: Marburg virus pseudotyped entry inhibition, cell reporter; activity change, negative = inhibition: at 37.8 µM (top of the series) unless noted
% is scaled to controls: 0 for no effect and ±100 for the full control effect; potency is read from the fitted curve at half-maximal effect.

Compound | activity change, negative = inhibition | Potency
CN(C)C(CNC(=O)C1CCCN1C(=O)c1cccs1)c1ccccc1 (centres undefined) | inactive: -4.38% [at 46.1 µM] | –
Cc1ccc(C)c(CN2CCC(CNC(=O)Nc3ccc(Br)cc3F)CC2)c1 | – | active: 4.47 µM
O=C(NCCc1cccs1)c1cccs1 | inactive: -17.4% [at 46.1 µM] | –
Cc1ccc(Nc2nc(C)cs2)cc1 | – | inconclusive: 11.2 µM [inhibitor, partial curve, poor fit]
O=c1[nH]c(=S)n(-c2ccc(Br)cc2)c(O)c1C=Nc1ccc(N2CCOCC2)cc1 | inactive: -5.33% | –
Cc1cc(Oc2c(C(F)(F)F)oc3c(CN4CCC(C)CC4)c(O)ccc3c2=O)cc(C)c1Cl | – | inconclusive: 11.2 µM [activator, partial curve, poor fit]
CC1CCCCN1CCNC(=O)c1ccc2c(c1)N(Cc1cccc(Cl)c1)C(=O)c1ccccc1S2=O (centres undefined) | – | inconclusive: 6.31 µM [inhibitor, partial curve, poor fit]
CC1CCc2c(sc3c2C2=NS(=O)(=O)CCN2C=N3)C1 (centres undefined) | – | inconclusive: 14.1 µM [inhibitor, partial curve, poor fit]
Cc1ccc(-c2cn3nc(-c4ccccc4)c(-c4ccccc4)nc3n2)cc1 | – | inconclusive: 35.5 µM [inhibitor, single point]
COc1ccc(Cn2c(=O)c3cccnc3n(CC(=O)Nc3ccc(C)c(F)c3)c2=O)cc1 | – | inconclusive: 11.2 µM [activator, single point]
CN(c1ccccc1)c1ccc(/C=N/NC(=O)CC#N)cc1 | – | active: 12.6 µM
CCC(=Nc1ccccc1N)c1c(O)[nH]c(=O)[nH]c1=O | inactive: -29.3% | –
Cc1ccc(NC(=O)c2c(F)cccc2Cl)cc1NS(C)(=O)=O | inactive: -7.83% | –
c1ccc(-c2noc(-c3ccc4c(c3)OCO4)n2)nc1 | – | inconclusive: 1.16 µM [inhibitor, full curve, poor fit]
O=C(c1ccc(CS(=O)(=O)c2ccccc2)o1)N1CCN(c2ccccc2)CC1 | – | inconclusive: 7.08 µM [inhibitor, partial curve, poor fit]
CCN(CC)c1ccc(/C=N/NC(=O)CCC(=O)NCc2ccccc2)c(O)c1 | – | inconclusive: 7.31 µM [inhibitor, full curve, poor fit]
Cn1ccc2cc3c(cc21)CCN3C(=O)Nc1cccnc1 | – | inactive and inconclusive: 891 nM [activator, full curve, poor fit]
Nc1nnc(CC(=O)N/N=C/c2ccc(-c3ccc(F)cc3)o2)s1 | inactive: -1.37% [at 46.1 µM] | –
C[N+]1(CCCCSc2ccc(O)cc2)CCCCC1 | inactive: 0.508% | –
O=C(Nc1c(C(=O)Nc2ccc(F)cc2)oc2ccccc12)c1cc2ccccc2o1 | inactive: -3.33% [at 46.1 µM] | –
OCCC1CN(CC#Cc2ccccc2)CCN1C1CCCC1 (centres undefined) | inactive: 0.854% [at 46.1 µM] | –
Cc1cccc(-n2c(C)cc(/C=N/NC(=O)c3cccc([N+](=O)[O-])c3C)c2C)c1 | – | inconclusive: 20 µM [inhibitor, partial curve, poor fit]

Whole records as entered above:
`CC1CCc2c(sc3c2C2=NS(=O)(=O)CCN2C=N3)C1` (centres undefined) reads Potency: inconclusive: 14.1 µM [inhibitor, partial curve, poor fit]
`CCC(=Nc1ccccc1N)c1c(O)[nH]c(=O)[nH]c1=O` reads activity change, negative = inhibition: inactive: -29.3%
`CCN(CC)c1ccc(/C=N/NC(=O)CCC(=O)NCc2ccccc2)c(O)c1` reads Potency: inconclusive: 7.31 µM [inhibitor, full curve, poor fit]

(list continues)

Compound | activity change, negative = inhibition | Potency
COc1cccc(/C=N/Nc2ncnc3c2ncn3Cc2ccccc2)c1O | – | inconclusive: 2.51 µM [inhibitor, full curve, poor fit]
COC(=O)c1c(NC(=O)C2C3C=CC(CC3)C2C(=O)O)sc(C)c1C (centres undefined) | – | inconclusive: 0.112 µM [activator, full curve, poor fit]
Cc1ccc(C)c2c1cc(C)c1nnc(SCC(=O)c3cccs3)n12 | – | inconclusive: 0.651 µM [inhibitor, partial curve, poor fit]
COc1cc2c(cc1OC)C(COc1ccc3c(C)cc(=O)oc3c1)N(C(=O)C(C)C)CC2 (centres undefined) | – | inconclusive: 35.5 µM [activator, single point]
CCN(CC)C(=O)C(=O)c1cc(C)n(-c2ccc(F)cc2)c1C | – | inconclusive: 3.16 µM [inhibitor, single point]
CCN(CC)c1ccc(-n2c(C)cc(C=O)c2C)cc1 | – | inconclusive: 6.31 µM [activator, single point]
COc1cccc(NC(C)C(=O)Nc2cc([N+](=O)[O-])ccc2Cl)c1 (centres undefined) | – | inconclusive: 35.5 µM [inhibitor, single point]
O=[N+]([O-])c1ccc(NN=Cc2cc(Br)ccc2O)nc1 | – | inconclusive: 12.6 µM [inhibitor, partial curve, poor fit]
Cc1ccccc1C(=O)c1cccn1CC(=O)NC1CCCC(C)C1C (centres undefined) | inactive: -21.5% [at 46.1 µM] | –
O=C(CCn1c(=O)c2ccccc2n(CC(=O)NC2CCCC2)c1=O)NCCc1ccc(Cl)cc1 | – | inconclusive: 29.1 µM [inhibitor, single point]
CC1(C(=O)NCCN2CCOCC2)C=CC2(CCCCC2)N1C(=O)c1ccccc1 (centres undefined) | – | inconclusive: 20.6 µM [activator, partial curve, poor fit]
CCN1C(=NCc2ccc(OC)cc2)NC(c2cccc(F)c2)C(C(=O)OC)=C1C (centres undefined) | inactive: 2.41% [at 14.2 µM] | –
CC(C)NC(=O)/C(C#N)=C\c1ccc(N(C)C)o1 | inactive: 11.6% [at 46.1 µM] | –
CC(=O)c1c(C)[nH]c(C(=O)OCc2cccc(Cl)c2)c1C | – | inconclusive: 10 µM [inhibitor, single point]
Brc1cccc(-c2nc(-c3ccncc3)no2)c1 | – | inconclusive: 0.447 µM [activator, partial curve, poor fit]
Cc1ccc2sc3ccc(NC(=O)c4ccccc4Cl)cc3c(=O)c2c1 | – | inconclusive: 23.1 µM [inhibitor, single point]
CCc1ccc(-n2c(=O)c3sc4ccccc4c3n(CC(=O)NC3CCCCC3)c2=O)cc1 | inactive: 13% [at 46.1 µM] | –
CCCS(=O)(=O)N1CCN(Cc2ccccc2C(F)(F)F)CC1 | – | inconclusive: 6.51 µM [inhibitor, partial curve, poor fit]
COc1ccc(CNC(=O)CSc2nnc3c(n2)[nH]c2ccc(C)cc23)cc1 | inactive: 24.9% [at 46.1 µM] | –
CCc1cc(CNC(=O)CCc2nnc(Cc3cccc(C)c3)o2)on1 | inactive: -4.48% [at 46.1 µM] | –
CCc1ccc(CCC(=O)Nc2ccc(S(N)(=O)=O)cc2)o1 | – | inconclusive: 29.1 µM [activator, single point]
COc1ccc(NS(=O)(=O)c2ccc3c(c2)CCN3C(=O)CCC(=O)O)cc1Cl | inactive: 11.7% [at 46.1 µM] | –
